No constants are given. Whether binding was seen depends on the method and setting. Some entries that bind do so weakly or less than the wild type.
target: MUC18 antigen coated on ELISA plates (hybridoma screening) (human) (UniProt P43121); assay: antigen-specific ELISA of hybridoma supernatants on antigen coated plates

Amino acid sequences for entries named in this document (tags omitted). Residues count along the entry.
UniProt P43121, residues 24-559: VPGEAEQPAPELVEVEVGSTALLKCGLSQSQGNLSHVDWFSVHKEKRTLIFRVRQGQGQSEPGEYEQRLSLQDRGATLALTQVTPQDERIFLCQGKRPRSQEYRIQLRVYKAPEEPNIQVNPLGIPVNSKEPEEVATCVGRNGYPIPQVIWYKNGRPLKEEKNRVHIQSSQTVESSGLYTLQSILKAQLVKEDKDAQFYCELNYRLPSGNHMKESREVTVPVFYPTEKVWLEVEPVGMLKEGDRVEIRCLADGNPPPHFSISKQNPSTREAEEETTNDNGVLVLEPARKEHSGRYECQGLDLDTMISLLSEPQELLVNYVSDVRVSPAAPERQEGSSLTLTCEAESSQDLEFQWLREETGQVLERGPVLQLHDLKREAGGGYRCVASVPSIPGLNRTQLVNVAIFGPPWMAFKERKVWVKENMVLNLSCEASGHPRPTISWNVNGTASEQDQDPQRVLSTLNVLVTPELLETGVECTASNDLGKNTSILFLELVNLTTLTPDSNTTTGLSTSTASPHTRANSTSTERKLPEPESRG

binding	Binder
binds	c3.22 (antibody, IgG2, V domains shown) VH: QVQLQESGPGLVKPSQTLSLTCTVSGGSISSGGYYWTWIRQHPGKGLEWIGFIYYSGSTYYNPSLKSRVTISVDTSKNQFSLKLSSVTAADTAVYYCAREGDGFDYWGQGTLVTVSS VL: DIQMTQSPSSLSASVGDRVTITCRASQGIRNDLGWYQQKPGKAPKRLIYAASSLQSGVPSRFSGSGSGTEFTLTISSLQPEDFATYYCLQHNSYPLTFGGGTKVEIK
binds	c6.9 (antibody, IgG2, V domains shown) VH: QVQLEQSGPGLVKPSETLSLTCTVSGGSISSGTYHWSWIRQHPGRGLEWIGYIYYSGSTYHNPSLKSRITISVDTSKNQFSLKLSSVTAADTAVYYCARGGDGYRYWGQGTLVTVSS VL: EIVMTQSPATLSVSPGERATLSCRASQSISNNFAWYQQKPGQAPRLLIFGASTRATGIPARFSGSGSGTEFTLTISSLQSEDFAVYYCQQYNNWPRTFGQGTKVEIK
binds	c6.12 (antibody, IgG2, V domains shown) VH: QVQLEQSGPGLVKPSETLSLTCTVSGGSISSGTYHWSWIRQHPGRGLEWIGYIYYSGSTYHNPSLKSRITISVDTSKNQFSLKLSSVTAADTAVYYCARGGDGYRYWGQGTLVTVSS VL: EIVMTQSPATLSVSPGERATLSCRASQSISNNFAWYQQKPGQAPRLLIFGASTRATGIPARFSGSGSGTEFTLTISSLQSEDFAVYYCQQYNNWPRTFGQGTKVEIK
binds	c6.2 (antibody, IgG2, V domains shown) VH: QVQLQESGPGLVKPSETLSLTCTVSGGSISTYYWSWIRQPPGKGLEWIGYIYYTGNTYYNPSLKSRVTVSVDTSKNQFSLKLNSVTAADTAVYYCARDPGQWLVPDAFDIWGQGTMVSVSS VL: DIVMTQSPLSLPVIPGEPASISCRSSQSLLQSNGNNYLDWYLQKPGQSPQLLIYLGSNRASGVPDRFSGSGSGTDFTLKISRVEADDVGIYYCMQALQIPLTFGGGTKVEIK
binds	c3.45 (antibody, IgG2, V domains shown) VH: QVQLVQSGAEVKKPGASVKVSCKASGYTFFSYGFSWVRQAPGQGLEWLGWISAYNGNTNYAQKLQGRVTMTTDTSTSTAYMELRSLRSDDTAVYYCARETKVRGVHYYGMDVWGQGTTVTVSS VL: DIVMTQSPDSLAVSLGERATIICKSSQSILYSSNNKNYLGWYQQKPGQPPKLLIYWASTRESGVPARFSGSGSGTDFTLTINSLQAEDVAVYYCQQYYSTPRSFGQGTMVEIK
binds	c3.10 (antibody, IgG2, V domains shown) VH: QVQLQESGPGLVKPSETLSLTCTVSGGSISSYYWSWIRQPPGKGLEWIGYIYYTWTTNYNPSLKSRVTISVDTSKNQFSLRLSSVTAADTALYYCARDQGQWLLPDAFDIWGQGTMVTVSS VL: DIQMTQSPSSLSASVGDRVTITCRASQSISNYLNWYQQKPGKAPKLLIYGASSLQSGVPSRFSGSGSGTDFTLTISSLQPEDFATYYCRQSYSTPPECSFGQGTKLEIK
binds	c3.27 (antibody, IgG2, V domains shown) VH: QVQLQESGPGLVKPSETLSLTCTVSGGSISSYYWSWIRQPPGKGLEWIGYIYYTWTSNYNPSLKSRVTISVDTSKNQFSLRLSSVTAADTAVYYCARDQGQWLLPDAFDIWGQGTMVTVSS VL: DIQMTQSPSSLSASVGDRVTITCRASQGIRNDLGWYQQKPGKAPKRLIYAASSLQSGVPSRFSGSGSGTEFTLTISSLQPEDFATYYCLQHNSYPWTFGQGTKVEIK
